Data: the supplement of paper PMC4604168 (melanoma cell lines)
The other results are listed elsewhere or left out. Many values rest on one well or one pass, so single values are uncertain.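 Imaging used 1,536-well plates; nuclei positive for cleaved PARP by antibody were divided by total DNA-stained nuclei to yield the apoptosis fraction. Doses for screening kept most cells viable, and cell lines differ markedly in resting and induced cleaved-PARP levels.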

Tested on: CBRC008 (line from a melanoma biopsy)
Assay: cleaved PARP positive nuclei fraction relative to DMSO control; melanoma cells; higher = more apoptosis
Details: library dose: low library concentration; 72 h

Row | SMILES | cleaved PARP positive nuclei fraction
1 | CS(=O)(=O)c1ccc(C(=O)Nc2ccc(Cl)c(-c3ccccn3)c2)c(Cl)c1 [vismodegib] + N.N.[Cl][Pt][Cl] [cisplatin] (first compound 1 µM, partner dose 1.6 µM) | 80.2%
2 | Cc1cc(Nc2cc(N3CCN(C)CC3)nc(/C=C/c3ccccc3)n2)n[nH]1 + C[As](C)SC[C@H](NC(=O)CC[C@H](N)C(=O)O)C(=O)NCC(=O)O [Darinaparsin] (first compound 0.04 µM, partner dose 0.4 µM) | 121%
3 | O=C(Nc1cc(C(F)(F)F)cc(C(F)(F)F)c1)c1cc(Cl)ccc1O + C[As](C)SC[C@H](NC(=O)CC[C@H](N)C(=O)O)C(=O)NCC(=O)O [Darinaparsin] (first compound 0.016 µM, partner dose 0.4 µM) | 71.6%
4 | Cc1cn(-c2cc(NC(=O)c3ccc(C)c(Nc4nccc(-c5cccnc5)n4)c3)cc(C(F)(F)F)c2)cn1 [nilotinib] + C[C@]12O[C@H](C[C@]1(O)CO)n1c3ccccc3c3c4c(c5c6ccccc6n2c5c31)CNC4=O [Lestaurtinib] (first compound 0.2 µM, partner dose 0.004 µM) | 51.2%
5 | C[As](C)SC[C@H](NC(=O)CC[C@H](N)C(=O)O)C(=O)NCC(=O)O [Darinaparsin] + Cn1c(Nc2ccc(C(F)(F)F)cc2)nc2cc(Oc3ccnc(-c4ncc(C(F)(F)F)[nH]4)c3)ccc21 [CHIR265] (first compound 0.4 µM, partner dose 0.08 µM) | 104%
